Primary screen of a compound library

Data taken from ChEMBL document CHEMBL3988442, “University of Dundee, Small-Polar-MMV Screening Library” (2021).

T. brucei: 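Whole-parasite assay of Trypanosoma brucei over 72 hours; the read-out is not stated. Compounds at 30 µM. Direction is inferred from retests: higher values go with stronger inhibition. Values scatter widely below zero; nearly all retest evidence comes from the higher of the two concentrations used. About 64,000 compounds were tested under these conditions; 1.5% (about 940) showed 50% or more at least once.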
Toxoplasma: 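Assay of Toxoplasma gondii numbers, read through their beta-galactosidase reporter with a colour substrate. Tested at 10 µM. The record gives no direction; the compounds picked for IC50 retests had high values, so higher reads as fewer parasites. Size under these conditions: about 67,000 compounds, about 260 of them at 50% or above in at least one test.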

Results are given as percent effect.
How 0% and 100% were set is not recorded. Most values in the screen are low, and negative values occur.
This is an unselected part of the compounds tested.
A dash means the value is not listed here; it may have been measured.

SMILES	T. brucei	Toxoplasma
COc1ncccc1CN1CCN(c2noc(C(C)C)n2)CC1	-47.61	0.4552
Cc1c(C)n(Cc2ccccn2)c2nc3c(c(N)c12)CCCCC3	-24.44	17.94
c1cncc(COCC2CN(Cc3ccsc3)Cc3ccnn3C2)c1 (centres unmarked)	-196	11.29
Cc1cccc(OCCC(=O)N2CCCN(CC(N)=O)CC2)c1C	-11.3	-
CC(C)NC(=O)Nc1ccc(-c2nc(C(C)C)no2)cc1	24.32	-4.956
Cc1ccoc1C(=O)N(CCN(C)C)Cc1ccccn1	-29.38	-12.24
Nc1cccnc1N1CCC(C(F)(F)F)CC1	-	4.251
CN(Cc1ccc(F)cc1F)CC(C)(CO)CO	4.736	4.201
O=C(CCc1ccccn1)N1CCN(C(=O)CC2CCCCC2)CC1	11.4	-2.304
CN(C1CCN(c2ccccn2)CC1)S(=O)(=O)c1ccccc1F	-1.436	4.439
CC(NCCCn1cccn1)c1ccc(N2CCCS2(=O)=O)cc1 (centres unmarked)	-41.32	0.3236
O=C(O)C(F)(F)F.[H][C@@]12CCN(c3ncc(F)cn3)C[C@]1(COc1nccc(C)n1)CCO2	-12.92	-4.339
F[C@@H]1CN(Cc2ccccc2)C[C@@H]1OCc1nc2cnccc2[nH]1	-35.98	-6.569
CCS(=O)(=O)N1CCC2(CC1)CC(Oc1ccccn1)CO2.O=C(O)C(F)(F)F (centres unmarked)	-6.798	-6.874
CN(c1ccc2ccccc2c1)S(=O)(=O)c1cc(C(=O)O)cs1	-1.072	-1.38
CN(C)[C@@H]1CO[C@H](CNC(=O)c2ccccc2)[C@H]1O	-9.647	-2.754
CN(C)c1ncc(CNS(=O)(=O)c2cccc3ccccc23)n1C	-22.83	4.126
CC(=O)NC(CC(=O)Nc1ccc(C)cn1)c1ccccc1 (centres unmarked)	10.81	-3.958
COc1cccc2c1OCC(C(=O)N(Cc1ccncc1)CC(C)C)C2 (centres unmarked)	-58.24	5.876
Cc1n[nH]c(C2CN(CC(=O)NCCc3ccsc3)CCO2)n1 (centres unmarked)	-58.69	-1.204
CCOCC(=O)N1Cc2cnc(-c3ccccc3)nc2C1	-0.9649	-7.814
O=C(O)C(F)(F)F.[H][C@]12CCN(Cc3c(C)noc3C)[C@@]1([H])CC[C@H](COCC1CC1)O2	18.98	5.542
CSc1ccc(CN(C)C(=O)c2cc3c([nH]c2=O)CCCC3=O)cc1	-	3.827
CN1CCN(c2cc(CNC(=O)c3cccnc3O)ccn2)CC1	-	-27.95
[H][C@@]12CCN(C[C@@H]1c1cc(-c3cccs3)nn1C)[C@@H](CNC(C)=O)C2	-1.862	-3.247
Cn1cnnc1C1CCCN(C(=O)c2ccccc2Cl)C1 (centres unmarked)	12.77	1.713
CC(NC(=O)COc1ccccc1C(=O)O)c1ccc(F)cc1 (centres unmarked)	-14.71	-0.7173
Cn1ccc(C(=O)NCc2ccccc2Cn2ccnc2)cc1=O	-13.97	2.68
c1ccc(-c2noc(CCCN3CCCC3Cn3cccn3)n2)cc1 (centres unmarked)	-24.19	3.143
COCCN1CCCC(C)(c2cc(O)[nH]n2)C1 (centres unmarked)	-6.632	9.405
COc1ccc2nnc(CCC(=O)NCc3cccn3C)n2n1	-5.888	9.704
O=C(Nc1ccc2c(c1)OC1(CCCCC1)O2)c1ccc(=O)[nH]n1	-3.604	6.549
O=C(O)C(F)(F)F.[H][C@@]12CN(C(=O)c3ccc(O)cc3)C[C@]1([H])OCCN2c1ncccn1	-11.1	4.765
CCC(CC)CS(=O)(=O)NC(=O)C1CCC1	-65.84	0.6472
Cc1cc(C(=O)N2CCCC2c2nc(O)cc(C(C)C)n2)on1 (centres unmarked)	-9.142	3.728
Cc1cc(C)c2ncn(CCOCCO)c(=O)c2c1	-18.43	6.164
Cc1nonc1CN(C)c1nc(-c2ccco2)nc2c1CCN(C)CC2	-56.96	1.399
Cc1noc(C)c1CN1CC2(CCN(C(=O)c3ccc[nH]3)C2)CC1=O (centres unmarked)	2.939	1.661
Cc1cnc(N)nc1N1CCN(CCCO)CC1	-	-17.06
CC1CN(c2ccc(CNC(=O)NCc3ccoc3)cn2)CCO1 (centres unmarked)	-8.868	0.885
Cc1oc(-c2ccco2)nc1CC(=O)N1CCN(CC(C)O)CC1 (centres unmarked)	-13.75	-0.2316
Cc1cccc(CN2CCN(C(=O)c3cnc(C)[nH]c3=O)CC2)c1	-35.71	1.787
Cc1ccccc1-n1nc(C)c(CN(C)C(C)Cc2ccccn2)c1C.O=C(O)CC(O)(CC(=O)O)C(=O)O (centres unmarked)	10.5	-2.317
CN1CCC(N(Cc2ccccc2F)C(=O)NCc2ccncc2)CC1	-39.86	-3.341
CCNC(=O)[C@@H]1C[C@H](NC(=O)c2ccccc2C#N)CN1CCCSC	26.72	14.77
Cc1cc(C(F)(F)F)nc(C2CCN(C(=O)CO)CC2)n1	4.297	-11.76
Cc1ccc(CC(=O)N2CCCN(Cc3nccn3C)CC2)cn1	-	24.74
Cc1noc(OCc2ccc(C#N)cc2)n1	-0.3787	-2.594
N#Cc1cccc(C(=O)N2CCC3(CCC(=O)N(C4CC4)C3)CC2)c1	-3.327	-1.408
Cc1nc(N2CCCC2)nc2c1CN(C(=O)N1CCOCC1)CC2	-11.35	7.075
CCN(Cc1cnc(C)cn1)C1CCN(c2ccccc2)C1=O (centres unmarked)	-3.265	0.459
CNC(=O)NC(=O)COc1c(C(C)=O)ccc(Cl)c1Cl	10.68	1.337
CC(C)CNC(=O)c1cc2c(s1)CCN2S(C)(=O)=O	-5.731	7.897
CC(=O)N1CCn2c(nnc2C2CCCCN2Cc2ccccc2Cl)C1 (centres unmarked)	-18.07	9.714
Cc1nn(CC(O)CN2CCC(C)CC2)c(=O)c(C#N)c1C (centres unmarked)	-8.751	0.0612
O=C(O)C(F)(F)F.[H][C@]12CN(C)C[C@@]1(C(=O)O)CCCN(C(=O)NCc1cccc(F)c1)C2	-61.02	4.005
COCc1ccc(CNC(=O)CN2CCc3ccccc32)cc1	-35.42	1.264
CC(C)CNC(=O)NC(=O)C(C)Nc1cccc(CN2CCOC2=O)c1 (centres unmarked)	2.63	5.477
Cc1cccc(C(=O)N2CCCC(c3noc(C)n3)C2)n1 (centres unmarked)	6.808	-9.773
Cc1nn(C)c(C)c1NC(=O)CNC(c1ccccc1)C1CCCC1 (centres unmarked)	-106.1	-6.44
CN(C)C(CNS(=O)(=O)c1cnn(C)c1)c1cccc(F)c1 (centres unmarked)	-58.24	-2.147
CC(C)N1c2sc(-c3ccccc3)nc2CC1C(=O)NC1CCCC1 (centres unmarked)	-20.78	23.85
CCOCc1ncn2c1CN(S(=O)(=O)c1ccc(OC)cc1)CC2	-41.13	3.315
Cn1cc(C(=O)N(Cc2ccco2)Cc2cccs2)ccc1=O	-25.55	-
Cc1cccc(OC2CCN(c3ccc(C#N)cn3)CC2)n1	86.54	0.3623
COCCN(CCOC)C(=O)NC1CCCCC1	-16.76	-5.029
O=C(c1coc(-c2ccccc2)n1)N1CCS(=O)(=O)CC1	-25.95	-2.065
O=C1CN(C(=O)c2cccc(OCc3cscn3)c2)CCN1	3.963	-16.2
COc1ccc(Br)c(C(=O)NC(CC(=O)O)c2cccs2)c1 (centres unmarked)	1.7	4.367
O=C(O)c1cccc(S(=O)(=O)N2CCOc3ccccc32)c1	4.65	-7.903
CCn1ncc2c1C(COCC1CC1)N(Cc1c(C)noc1C)CC2.O=C(O)C(F)(F)F.O=C(O)C(F)(F)F (centres unmarked)	-	0.6627
CC(CC(=O)O)CC(=O)Nc1sc2c(c1C(N)=O)CCc1ccccc1-2 (centres unmarked)	-47.55	10.73
Cc1nnc(N2CCC(CNC(=O)OC(C)(C)C)CC2)c(C#N)c1C	-37.76	1.004
[H][C@@]12COC[C@]1([H])[C@H](OCc1csc(C)n1)CN2Cc1ccccn1	-8.621	-13.17

Once more, the final 7:

{"smiles": "O=C1CN(C(=O)c2cccc(OCc3cscn3)c2)CCN1", "T. brucei": 3.963, "Toxoplasma": -16.2}
{"smiles": "COc1ccc(Br)c(C(=O)NC(CC(=O)O)c2cccs2)c1", "stereo": "centres unmarked", "T. brucei": 1.7, "Toxoplasma": 4.367}
{"smiles": "O=C(O)c1cccc(S(=O)(=O)N2CCOc3ccccc32)c1", "T. brucei": 4.65, "Toxoplasma": -7.903}
{"smiles": "CCn1ncc2c1C(COCC1CC1)N(Cc1c(C)noc1C)CC2.O=C(O)C(F)(F)F.O=C(O)C(F)(F)F", "stereo": "centres unmarked", "Toxoplasma": 0.6627}
{"smiles": "CC(CC(=O)O)CC(=O)Nc1sc2c(c1C(N)=O)CCc1ccccc1-2", "stereo": "centres unmarked", "T. brucei": -47.55, "Toxoplasma": 10.73}
{"smiles": "Cc1nnc(N2CCC(CNC(=O)OC(C)(C)C)CC2)c(C#N)c1C", "T. brucei": -37.76, "Toxoplasma": 1.004}
{"smiles": "[H][C@@]12COC[C@]1([H])[C@H](OCc1csc(C)n1)CN2Cc1ccccn1", "T. brucei": -8.621, "Toxoplasma": -13.17}